Reference: paper PMC13245405, “Stable inheritance of the Streptomyces linear plasmid SCP1 by dual ParABS partition systems” (Nucleic Acids Research, 2026)
No signal at the amounts used counts as a negative. At least one verdict was read from the data and is not stated in words by the source. Where a protein sequence is shown, tags need not be part of it. For at least one entry, the source does not settle the construct or the ends of the probe. A weaker result is weaker than the reference pair of the same experiment.

Legend:
[1] = target: T1, ParB2-His6 WT (Streptomyces coelicolor A3(2), plasmid SCP1) (UniProt Q9ACT0); test: BLI; conditions: BLI: 100 mM Tris-HCl pH 8, 100 mM NaCl, 1 mM MgCl2, 0.005% Tween 20, 25 C, ParB 0.0625-2 uM (50 bp) or 1 uM (190 bp), recombinant protein, residues 1-381, protein details: C-terminal His6, label: 5' biotin on strand 1
T1 sequence (looked up): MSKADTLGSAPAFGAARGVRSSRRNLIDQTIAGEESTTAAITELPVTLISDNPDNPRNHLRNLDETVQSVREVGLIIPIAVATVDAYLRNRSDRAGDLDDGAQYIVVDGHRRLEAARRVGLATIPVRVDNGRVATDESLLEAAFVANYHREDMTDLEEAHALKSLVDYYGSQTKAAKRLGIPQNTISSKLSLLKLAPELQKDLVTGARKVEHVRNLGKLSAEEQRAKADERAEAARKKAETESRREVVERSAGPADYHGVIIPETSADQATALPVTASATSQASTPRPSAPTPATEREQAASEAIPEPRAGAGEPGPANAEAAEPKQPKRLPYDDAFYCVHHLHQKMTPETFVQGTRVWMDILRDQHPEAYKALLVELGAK

[2] = target: T2, ParB1-His6 WT (Streptomyces coelicolor A3(2), plasmid SCP1) (UniProt Q9AD11); test: BLI; conditions: BLI: 100 mM Tris-HCl pH 8, 100 mM NaCl, 1 mM MgCl2, 0.005% Tween 20, 25 C, ParB 0.0625-2 uM (50 bp) or 1 uM (190 bp), recombinant protein, residues 1-375, protein details: C-terminal His6, label: 5' biotin on strand 1
T2 sequence (looked up): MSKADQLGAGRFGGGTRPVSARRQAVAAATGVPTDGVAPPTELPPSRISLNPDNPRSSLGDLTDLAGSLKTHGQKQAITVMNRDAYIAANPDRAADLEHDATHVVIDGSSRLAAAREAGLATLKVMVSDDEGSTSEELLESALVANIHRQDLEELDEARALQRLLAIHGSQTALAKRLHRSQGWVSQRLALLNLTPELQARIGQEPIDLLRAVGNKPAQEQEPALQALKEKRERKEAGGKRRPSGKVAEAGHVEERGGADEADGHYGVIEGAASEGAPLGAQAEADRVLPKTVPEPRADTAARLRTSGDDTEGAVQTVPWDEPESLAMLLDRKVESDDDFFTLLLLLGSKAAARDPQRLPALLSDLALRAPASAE

Sequence: CTGGGTATTCCCTCAGTTATCACGGCGTGATAAGAACGAACGACGCTCGC (double strand) [parS2 truncated by 2 bp each end]
- binding result [1]: binds

Sequence: CTGGGTATTCCCTCAATTATCACGGCGTGATAATAACGAACGACGCTCGC (double strand) [parS2 truncated by 1 bp each end]
- binding result [1]: binds

Sequence: CTTCGGACGCGGCACCCTCTATTACGGCGTAATGGCCGTCTGCCTCATCC / GGATGAGGCAGACGGCCATTACGGCGTAATAGAGGGTGCCGCGTCCGAAG [parS1 50 bp]
- binding result ([1]; no CTP): no binding
- binding result ([2]; 1 mM CTP): binds more weakly

Sequence: AGCAGGCCCCGCCGATTATCACGGCGTGATAATCCCGGAGACGTCCGCTG (double strand) [parS2 50 bp]
- binding result ([1]; 1 mM CTP): binds more weakly
- binding result ([2]; no CTP): no binding
